Some of the results follow.
Columns and labels:
Assay in all cases: log2 fold change, soluble protein after heating vs DMSO (PISA); higher = thermal stabilisation; K562 cells, 10 uM, 30 min; active = over 0.2 and 3.5 SD of the protein, either way, in both replicates (recomputed)
bafetinib = compound: Cc1ccc(NC(=O)c2ccc(CN3CC[C@H](N(C)C)C3)c(C(F)(F)F)c2)cc1Nc1nccc(-c2cncnc2)n1 [bafetinib]
Method in brief: (§1)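 Thermal stability values are relative to control samples and come from duplicates. They are expressed as log2 fold changes. For measurement, K562 cells (2×10^6 cells/mL) received 10 μM compound for 30 min, and aliquots were heated for 3 min over 48°C-58°C, pooled, and extracted at 4°C in PBS with 0.5% NP-40. Soluble protein, the supernatant after 21,000xg for 90 min, was quantified by TMTpro 16plex LC-MS/MS with equalised channel sums.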

Amino acid sequences for entries named in this document (tags omitted). A change or cut given only in a name is not applied to a line headed by its entry.
UniProt Q9NZD8: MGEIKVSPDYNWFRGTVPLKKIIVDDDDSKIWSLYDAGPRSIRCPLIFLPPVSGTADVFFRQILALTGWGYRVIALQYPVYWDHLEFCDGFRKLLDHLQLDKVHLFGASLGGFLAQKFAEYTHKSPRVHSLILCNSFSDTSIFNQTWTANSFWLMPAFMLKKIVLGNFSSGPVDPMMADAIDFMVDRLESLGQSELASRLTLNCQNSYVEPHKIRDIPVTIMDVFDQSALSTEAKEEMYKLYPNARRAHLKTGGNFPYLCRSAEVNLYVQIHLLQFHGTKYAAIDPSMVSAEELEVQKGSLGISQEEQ
UniProt P49458: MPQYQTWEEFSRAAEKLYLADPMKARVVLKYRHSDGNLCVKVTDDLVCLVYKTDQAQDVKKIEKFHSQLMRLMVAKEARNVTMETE
UniProt O15269: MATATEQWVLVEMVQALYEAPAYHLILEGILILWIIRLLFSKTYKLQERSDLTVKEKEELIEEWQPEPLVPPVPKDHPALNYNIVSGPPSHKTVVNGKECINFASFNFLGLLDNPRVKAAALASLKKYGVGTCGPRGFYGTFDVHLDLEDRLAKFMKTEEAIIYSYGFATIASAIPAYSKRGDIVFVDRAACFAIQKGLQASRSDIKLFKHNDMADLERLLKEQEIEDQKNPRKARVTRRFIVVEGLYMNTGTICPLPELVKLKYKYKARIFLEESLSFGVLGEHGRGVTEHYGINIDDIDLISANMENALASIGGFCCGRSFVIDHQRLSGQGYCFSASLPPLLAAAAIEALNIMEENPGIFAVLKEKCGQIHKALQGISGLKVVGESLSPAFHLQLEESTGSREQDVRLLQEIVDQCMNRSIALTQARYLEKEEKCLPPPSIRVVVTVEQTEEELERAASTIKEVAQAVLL
UniProt Q9H2V7: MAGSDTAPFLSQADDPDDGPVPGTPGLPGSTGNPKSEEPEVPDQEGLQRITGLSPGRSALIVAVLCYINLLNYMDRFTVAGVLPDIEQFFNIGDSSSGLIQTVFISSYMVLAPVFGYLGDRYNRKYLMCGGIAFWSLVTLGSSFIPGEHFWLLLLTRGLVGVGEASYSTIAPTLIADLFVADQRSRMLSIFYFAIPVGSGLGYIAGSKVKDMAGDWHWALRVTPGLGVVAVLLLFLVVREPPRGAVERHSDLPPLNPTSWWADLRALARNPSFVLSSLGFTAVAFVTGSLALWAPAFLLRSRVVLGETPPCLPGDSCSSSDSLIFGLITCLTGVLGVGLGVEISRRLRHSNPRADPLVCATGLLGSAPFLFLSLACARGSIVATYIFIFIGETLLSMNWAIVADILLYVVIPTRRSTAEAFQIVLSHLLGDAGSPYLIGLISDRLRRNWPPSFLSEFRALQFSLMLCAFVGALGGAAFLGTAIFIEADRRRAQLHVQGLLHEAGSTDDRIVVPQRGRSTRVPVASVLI
UniProt Q8NBT2: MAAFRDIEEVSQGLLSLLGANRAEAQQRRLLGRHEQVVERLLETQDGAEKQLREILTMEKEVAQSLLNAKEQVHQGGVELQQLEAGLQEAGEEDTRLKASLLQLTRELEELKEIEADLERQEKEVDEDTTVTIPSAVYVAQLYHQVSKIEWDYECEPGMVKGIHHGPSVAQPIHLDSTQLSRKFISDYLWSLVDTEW
UniProt Q8IYB3: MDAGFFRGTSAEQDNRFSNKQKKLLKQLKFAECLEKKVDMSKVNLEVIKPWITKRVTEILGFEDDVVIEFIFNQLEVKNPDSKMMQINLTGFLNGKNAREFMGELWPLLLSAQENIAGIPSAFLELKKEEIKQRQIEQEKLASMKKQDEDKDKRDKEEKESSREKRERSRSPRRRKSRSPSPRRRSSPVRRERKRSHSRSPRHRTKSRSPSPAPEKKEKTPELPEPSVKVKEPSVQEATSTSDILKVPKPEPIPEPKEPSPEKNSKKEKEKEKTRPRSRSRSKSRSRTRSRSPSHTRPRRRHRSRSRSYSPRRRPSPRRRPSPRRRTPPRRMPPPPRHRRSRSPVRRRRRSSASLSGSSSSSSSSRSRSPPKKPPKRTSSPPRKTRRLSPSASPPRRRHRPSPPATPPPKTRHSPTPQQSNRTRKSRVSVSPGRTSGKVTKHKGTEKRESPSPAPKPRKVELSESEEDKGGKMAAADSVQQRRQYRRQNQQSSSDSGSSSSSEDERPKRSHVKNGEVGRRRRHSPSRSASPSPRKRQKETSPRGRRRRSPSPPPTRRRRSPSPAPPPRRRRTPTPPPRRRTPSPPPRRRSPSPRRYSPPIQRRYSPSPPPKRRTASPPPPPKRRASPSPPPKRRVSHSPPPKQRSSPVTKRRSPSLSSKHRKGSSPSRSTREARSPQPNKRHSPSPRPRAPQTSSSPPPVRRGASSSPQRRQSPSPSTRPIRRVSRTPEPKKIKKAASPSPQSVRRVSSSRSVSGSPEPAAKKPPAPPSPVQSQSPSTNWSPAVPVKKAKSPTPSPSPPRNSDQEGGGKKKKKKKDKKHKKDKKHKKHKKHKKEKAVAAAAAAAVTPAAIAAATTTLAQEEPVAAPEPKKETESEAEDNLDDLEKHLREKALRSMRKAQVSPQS
UniProt Q15831: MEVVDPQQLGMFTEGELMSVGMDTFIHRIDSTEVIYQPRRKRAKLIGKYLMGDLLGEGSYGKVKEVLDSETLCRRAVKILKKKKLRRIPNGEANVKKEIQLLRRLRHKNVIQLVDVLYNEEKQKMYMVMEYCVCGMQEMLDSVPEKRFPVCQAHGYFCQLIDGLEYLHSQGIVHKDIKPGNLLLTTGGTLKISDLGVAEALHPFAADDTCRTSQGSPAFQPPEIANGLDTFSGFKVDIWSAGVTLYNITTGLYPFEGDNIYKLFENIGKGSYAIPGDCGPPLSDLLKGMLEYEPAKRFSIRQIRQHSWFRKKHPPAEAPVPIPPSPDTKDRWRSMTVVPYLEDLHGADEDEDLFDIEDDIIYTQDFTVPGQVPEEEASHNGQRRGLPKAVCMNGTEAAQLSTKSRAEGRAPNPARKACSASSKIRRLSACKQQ
UniProt Q14849, whole entry, looked up: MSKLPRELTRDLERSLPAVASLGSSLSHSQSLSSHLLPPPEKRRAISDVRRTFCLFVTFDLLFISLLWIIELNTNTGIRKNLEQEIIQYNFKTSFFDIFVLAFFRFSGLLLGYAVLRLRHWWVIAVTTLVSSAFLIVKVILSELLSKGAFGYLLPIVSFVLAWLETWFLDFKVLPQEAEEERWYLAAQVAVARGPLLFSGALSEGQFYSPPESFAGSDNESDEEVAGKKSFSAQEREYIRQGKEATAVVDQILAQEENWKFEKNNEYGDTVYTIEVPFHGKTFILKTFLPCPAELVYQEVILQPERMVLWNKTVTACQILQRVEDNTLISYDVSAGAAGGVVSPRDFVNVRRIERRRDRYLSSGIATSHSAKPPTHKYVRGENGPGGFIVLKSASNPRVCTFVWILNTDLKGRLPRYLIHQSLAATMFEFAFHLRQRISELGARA
UniProt Q8N0Z3: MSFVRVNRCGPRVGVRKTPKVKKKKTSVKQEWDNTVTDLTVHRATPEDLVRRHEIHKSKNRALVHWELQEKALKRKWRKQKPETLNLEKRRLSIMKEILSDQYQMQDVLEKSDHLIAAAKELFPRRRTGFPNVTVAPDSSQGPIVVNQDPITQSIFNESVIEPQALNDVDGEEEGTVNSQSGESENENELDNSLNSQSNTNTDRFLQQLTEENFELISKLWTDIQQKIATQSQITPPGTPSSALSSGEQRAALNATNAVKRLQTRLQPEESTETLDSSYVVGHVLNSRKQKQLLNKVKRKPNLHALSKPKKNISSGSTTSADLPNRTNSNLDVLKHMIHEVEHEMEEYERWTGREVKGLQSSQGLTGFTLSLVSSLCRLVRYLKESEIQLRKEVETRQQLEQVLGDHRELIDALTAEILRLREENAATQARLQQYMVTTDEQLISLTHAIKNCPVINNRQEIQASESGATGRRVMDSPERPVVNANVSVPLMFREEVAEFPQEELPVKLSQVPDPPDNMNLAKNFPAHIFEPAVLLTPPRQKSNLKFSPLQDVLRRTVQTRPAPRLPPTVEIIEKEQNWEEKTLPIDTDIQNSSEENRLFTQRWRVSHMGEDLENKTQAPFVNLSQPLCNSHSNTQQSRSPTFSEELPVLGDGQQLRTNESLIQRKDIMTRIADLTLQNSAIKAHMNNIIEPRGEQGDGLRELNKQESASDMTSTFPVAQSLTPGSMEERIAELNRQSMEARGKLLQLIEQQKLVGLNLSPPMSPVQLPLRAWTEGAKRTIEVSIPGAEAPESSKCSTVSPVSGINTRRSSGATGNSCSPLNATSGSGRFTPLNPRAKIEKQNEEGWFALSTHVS
UniProt Q8NB90: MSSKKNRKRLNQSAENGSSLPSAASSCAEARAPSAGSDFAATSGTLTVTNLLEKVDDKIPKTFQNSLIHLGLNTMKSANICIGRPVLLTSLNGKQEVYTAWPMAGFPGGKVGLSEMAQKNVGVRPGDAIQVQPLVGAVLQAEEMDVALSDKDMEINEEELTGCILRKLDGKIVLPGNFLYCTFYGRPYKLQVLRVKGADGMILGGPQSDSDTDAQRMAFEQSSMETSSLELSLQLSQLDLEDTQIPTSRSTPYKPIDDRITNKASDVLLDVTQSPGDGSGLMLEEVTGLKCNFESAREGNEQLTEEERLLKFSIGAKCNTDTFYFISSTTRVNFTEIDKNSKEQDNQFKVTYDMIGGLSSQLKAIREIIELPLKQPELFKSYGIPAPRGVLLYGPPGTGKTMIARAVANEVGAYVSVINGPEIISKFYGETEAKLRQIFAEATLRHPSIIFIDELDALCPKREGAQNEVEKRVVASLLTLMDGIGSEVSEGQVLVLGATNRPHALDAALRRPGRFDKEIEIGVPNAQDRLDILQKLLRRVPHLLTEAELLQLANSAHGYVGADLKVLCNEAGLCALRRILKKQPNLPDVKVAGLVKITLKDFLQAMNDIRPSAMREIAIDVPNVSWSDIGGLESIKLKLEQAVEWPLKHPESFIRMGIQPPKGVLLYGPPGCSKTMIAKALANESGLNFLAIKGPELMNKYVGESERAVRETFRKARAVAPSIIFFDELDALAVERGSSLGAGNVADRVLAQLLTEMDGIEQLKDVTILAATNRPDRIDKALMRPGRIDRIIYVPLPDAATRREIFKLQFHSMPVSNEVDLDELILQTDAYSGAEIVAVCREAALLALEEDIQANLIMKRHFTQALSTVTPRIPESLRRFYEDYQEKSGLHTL
UniProt Q9BYN0: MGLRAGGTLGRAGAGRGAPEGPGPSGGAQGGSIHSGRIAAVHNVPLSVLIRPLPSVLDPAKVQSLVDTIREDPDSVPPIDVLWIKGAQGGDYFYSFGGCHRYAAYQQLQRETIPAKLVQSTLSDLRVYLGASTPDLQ
UniProt O75494: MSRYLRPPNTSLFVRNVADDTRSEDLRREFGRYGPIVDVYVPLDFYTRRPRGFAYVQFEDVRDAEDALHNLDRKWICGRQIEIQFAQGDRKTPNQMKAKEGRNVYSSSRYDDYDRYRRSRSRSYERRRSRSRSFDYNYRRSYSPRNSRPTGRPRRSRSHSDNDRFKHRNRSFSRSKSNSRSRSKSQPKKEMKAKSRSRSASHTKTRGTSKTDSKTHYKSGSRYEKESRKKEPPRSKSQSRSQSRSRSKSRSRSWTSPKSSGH
UniProt P84103: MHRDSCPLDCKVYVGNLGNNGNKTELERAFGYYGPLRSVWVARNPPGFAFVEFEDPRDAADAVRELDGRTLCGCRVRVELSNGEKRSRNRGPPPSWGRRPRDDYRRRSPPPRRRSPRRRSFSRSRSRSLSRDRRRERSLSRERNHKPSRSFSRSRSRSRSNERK
UniProt P51692: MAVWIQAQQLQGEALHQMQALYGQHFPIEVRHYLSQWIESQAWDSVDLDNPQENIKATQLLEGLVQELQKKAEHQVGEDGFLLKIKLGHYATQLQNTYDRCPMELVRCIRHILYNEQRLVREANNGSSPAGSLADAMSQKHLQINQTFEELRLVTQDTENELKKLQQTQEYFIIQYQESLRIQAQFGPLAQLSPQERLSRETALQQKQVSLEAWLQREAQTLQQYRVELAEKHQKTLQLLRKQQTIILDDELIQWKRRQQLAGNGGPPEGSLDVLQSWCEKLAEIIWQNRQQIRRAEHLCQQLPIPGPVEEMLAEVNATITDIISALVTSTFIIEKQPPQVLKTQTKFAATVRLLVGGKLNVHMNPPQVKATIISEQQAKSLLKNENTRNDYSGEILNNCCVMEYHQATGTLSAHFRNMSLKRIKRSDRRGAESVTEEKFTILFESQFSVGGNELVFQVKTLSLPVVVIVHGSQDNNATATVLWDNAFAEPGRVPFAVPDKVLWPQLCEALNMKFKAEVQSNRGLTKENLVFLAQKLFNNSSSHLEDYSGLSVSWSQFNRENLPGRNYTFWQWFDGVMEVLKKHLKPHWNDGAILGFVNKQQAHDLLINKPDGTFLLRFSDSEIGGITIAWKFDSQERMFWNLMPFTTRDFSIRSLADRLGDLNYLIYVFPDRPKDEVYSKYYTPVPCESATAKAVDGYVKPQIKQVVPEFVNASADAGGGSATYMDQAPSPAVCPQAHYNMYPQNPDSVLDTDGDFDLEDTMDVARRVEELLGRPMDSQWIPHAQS

[1] = compound: Cc1cccc(CC(=O)N2CCc3c2ccc(-c2cn(C)c4ncnc(N)c24)c3F)n1
Method in brief: as §1

nilotinib = compound: Cc1cn(-c2cc(NC(=O)c3ccc(C)c(Nc4nccc(-c5cccnc5)n4)c3)cc(C(F)(F)F)c2)cn1 [nilotinib]
Method in brief: as §1

[2] = compound: Cc1nc(Nc2n[nH]c3c2CN(C(=O)N[C@H](CN(C)C)c2ccccc2)C3(C)C)c2sccc2n1
Method in brief: as §1

dasatinib = compound: Cc1nc(Nc2ncc(C(=O)Nc3c(C)cccc3Cl)s2)cc(N2CCN(CCO)CC2)n1 [dasatinib]
Method in brief: as §1

[3] = compound: Cc1ncc(-c2ccnc(Nc3ccc(S(C)(=O)=O)cc3)n2)n1C(C)C
Method in brief: as §1

[4] = compound: Cn1cc(-c2ccc3c(c2)CCN3C(=O)Cc2cccc(C(F)(F)F)c2)c2c(N)ncnc21
Method in brief: as §1

[5] = compound: Cn1cc(-c2ccc3nnc(C(F)(F)c4ccc5ncccc5c4)n3n2)cn1
Method in brief: as §1

tipifarnib = compound: Cn1cncc1[C@@](N)(c1ccc(Cl)cc1)c1ccc2c(c1)c(-c1cccc(Cl)c1)cc(=O)n2C [tipifarnib]
Method in brief: as §1

mubritinib = compound: FC(F)(F)c1ccc(/C=C/c2nc(COc3ccc(CCCCn4ccnn4)cc3)co2)cc1 [mubritinib]
Method in brief: as §1

Target	log2 fold change (bafetinib)	log2 fold change [1]	log2 fold change (nilotinib)	log2 fold change [2]	log2 fold change (dasatinib)	log2 fold change [3]	log2 fold change [4]	log2 fold change [5]	log2 fold change (tipifarnib)	log2 fold change (mubritinib)
STAG2 (UniProt Q8N3U4)	inactive: -0.035	inactive: 0	inactive: 0.024	inactive: -0.099	inactive: -0.055	inactive: -0.057	inactive: 0.033	inactive: -0.026	inactive: -0.02	inactive: 0.085
SRGN (UniProt P10124)	inactive: 0.099	inactive: -0.011	inactive: 0.252	inactive: -0.092	inactive: 0.389	inactive: -0.015	inactive: -0.056	inactive: -0.082	inactive: 0.059	inactive: -0.004
SPG21 (UniProt Q9NZD8)	inactive: 0.158	inactive: -0.129	inactive: -0.173	inactive: -0.06	inactive: -0.087	inactive: 0.171	inactive: 0.022	inactive: 0.027	inactive: -0.115	inactive: -0.042
SRRT (UniProt Q9BXP5)	inactive: 0.078	inactive: 0.042	inactive: -0.129	inactive: -0.353	inactive: -0.35	inactive: 0.01	inactive: 0.129	inactive: 0.125	inactive: -0.114	inactive: 0.104
SRP9 (UniProt P49458)	inactive: 0.147	inactive: 0.014	inactive: 0.003	inactive: 0.093	inactive: 0.202	inactive: -0.01	inactive: -0.231	inactive: -0.089	inactive: 0.111	inactive: -0.132
SRSF7 (UniProt Q16629)	inactive: 0.073	inactive: -0.055	inactive: 0.156	active: -0.642	inactive: 0.171	inactive: 0.044	inactive: -0.177	inactive: -0.126	inactive: 0.181	inactive: -0.128
STAM2 (UniProt O75886)	inactive: -0.067	inactive: 0.014	inactive: 0.007	inactive: -0.077	inactive: 0.044	inactive: -0.008	inactive: 0.016	inactive: 0.009	inactive: -0.012	inactive: 0.019
SS18 (UniProt Q15532)	inactive: 0.079	inactive: -0.153	inactive: 0.149	inactive: 0	inactive: 0.091	inactive: -0.141	inactive: 0.146	inactive: 0.396	inactive: 0.108	inactive: 0.006
SPTLC1 (UniProt O15269)	inactive: 0.007	inactive: 0.053	inactive: 0.086	inactive: 0.003	inactive: -0.065	inactive: 0.015	inactive: 0.001	inactive: 0	inactive: -0.027	inactive: 0.072
SPNS1 (UniProt Q9H2V7)	inactive: -0.053	inactive: -0.034	inactive: -0.043	inactive: -0.009	inactive: 0.017	inactive: 0.021	inactive: 0.03	inactive: 0.099	inactive: -0.052	inactive: 0.006
SPN (UniProt P16150)	inactive: -0.051	inactive: -0.066	inactive: 0.056	inactive: 0.051	inactive: 0.026	inactive: -0.023	inactive: 0.037	inactive: -0.017	inactive: 0.081	inactive: 0.071
SRA1 (UniProt Q9HD15)	inactive: -0.055	inactive: 0.013	inactive: -0.005	inactive: 0.008	inactive: -0.013	inactive: -0.004	inactive: 0.002	inactive: 0.039	inactive: -0.101	inactive: 0.049
SPC24 (UniProt Q8NBT2)	inactive: -0.02	inactive: 0.07	inactive: 0	inactive: -0.034	inactive: -0.08	inactive: -0.005	inactive: 0.001	inactive: -0.06	inactive: -0.009	inactive: 0.013
SRRM1 (UniProt Q8IYB3)	inactive: 0.097	inactive: -0.015	inactive: 0.006	inactive: -0.042	inactive: 0.047	inactive: -0.039	inactive: -0.077	inactive: -0.18	inactive: 0.108	inactive: -0.024
STK11 (UniProt Q15831)	inactive: -0.036	inactive: -0.085	inactive: 0.071	inactive: -0.062	inactive: -0.018	inactive: 0.001	inactive: -0.009	inactive: -0.059	inactive: 0.013	inactive: 0.056
STARD3 (UniProt Q14849)	inactive: -0.097	inactive: 0.064	inactive: 0.215	inactive: 0.218	inactive: 0.284	inactive: 0.068	inactive: 0.119	inactive: -0.018	inactive: 0.022	inactive: -0.067
SPICE1 (UniProt Q8N0Z3)	inactive: -1.12	inactive: -0.624	inactive: -0.031	inactive: 0.051	–	inactive: 0.067	–	–	–	–
SRC isoform 2 (UniProt P12931)	inactive: -0.054	inactive: -0.037	inactive: -0.041	inactive: -0.499	–	inactive: -0.136	inactive: 0.008	inactive: -0.163	inactive: 0.005	inactive: 0.031
SPATA5 (UniProt Q8NB90)	inactive: -0.011	inactive: -0.007	inactive: -0.011	inactive: -0.116	inactive: 0.018	inactive: 0.055	inactive: -0.004	inactive: -0.026	inactive: 0.024	inactive: 0.007
STAM (UniProt Q92783)	inactive: 0.021	inactive: -0.007	inactive: 0.037	inactive: -0.019	inactive: 0.035	inactive: 0.082	inactive: 0.038	inactive: -0.014	inactive: -0.041	inactive: -0.011
SRSF6 (UniProt Q13247)	inactive: 0.578	inactive: 0.192	inactive: 0.155	active: -0.813	inactive: 0.079	inactive: 0.095	inactive: -0.251	–	inactive: 0.212	inactive: -0.014
SRXN1 (UniProt Q9BYN0)	inactive: -0.011	inactive: -0.157	inactive: -0.017	inactive: -0.088	–	inactive: 0.093	inactive: 0.134	inactive: 0.056	inactive: -0.149	inactive: 0.127
ST13 (UniProt P50502)	inactive: -0.015	inactive: 0.02	inactive: -0.021	inactive: -0.009	inactive: -0.074	inactive: -0.011	inactive: 0.05	inactive: 0.02	inactive: -0.065	inactive: 0.047
SRR (UniProt Q9GZT4)	inactive: -0.111	inactive: -0.064	inactive: 0.011	inactive: 0.036	inactive: -0.059	inactive: -0.005	–	inactive: 0.115	inactive: 0.043	inactive: -0.027
SRSF10 (UniProt O75494)	inactive: 0.044	inactive: -0.1	inactive: 0.089	inactive: -0.079	inactive: 0.336	inactive: 0.076	inactive: -0.498	inactive: -0.173	inactive: 0.215	inactive: -0.089
SRSF3 (UniProt P84103)	inactive: 0.126	inactive: -0.028	inactive: 0.075	active: -0.544	inactive: 0.173	inactive: 0.082	inactive: -0.199	inactive: -0.154	inactive: 0.134	inactive: -0.097
STK11IP (UniProt Q8N1F8)	inactive: -0.06	inactive: 0.111	inactive: -0.081	inactive: 0.058	inactive: -0.19	inactive: 0.051	inactive: -0.068	–	inactive: 0.034	inactive: -0.071
STAT5B (UniProt P51692)	inactive: -0.056	inactive: 0.109	inactive: -0.218	inactive: -0.432	active: -0.443	inactive: 0.162	inactive: 0.07	inactive: 0.08	inactive: -0.163	inactive: 0.308

Part of the list above, in markdown:

| Target | log2 fold change (bafetinib) | log2 fold change [1] | log2 fold change (nilotinib) | log2 fold change [2] | log2 fold change (dasatinib) | log2 fold change [3] | log2 fold change [4] | log2 fold change [5] | log2 fold change (tipifarnib) | log2 fold change (mubritinib) |
| --- | --- | --- | --- | --- | --- | --- | --- | --- | --- | --- |
| STAG2 (UniProt Q8N3U4) | inactive: -0.035 | inactive: 0 | inactive: 0.024 | inactive: -0.099 | inactive: -0.055 | inactive: -0.057 | inactive: 0.033 | inactive: -0.026 | inactive: -0.02 | inactive: 0.085 |
| SRGN (UniProt P10124) | inactive: 0.099 | inactive: -0.011 | inactive: 0.252 | inactive: -0.092 | inactive: 0.389 | inactive: -0.015 | inactive: -0.056 | inactive: -0.082 | inactive: 0.059 | inactive: -0.004 |
| SPNS1 (UniProt Q9H2V7) | inactive: -0.053 | inactive: -0.034 | inactive: -0.043 | inactive: -0.009 | inactive: 0.017 | inactive: 0.021 | inactive: 0.03 | inactive: 0.099 | inactive: -0.052 | inactive: 0.006 |
| SRA1 (UniProt Q9HD15) | inactive: -0.055 | inactive: 0.013 | inactive: -0.005 | inactive: 0.008 | inactive: -0.013 | inactive: -0.004 | inactive: 0.002 | inactive: 0.039 | inactive: -0.101 | inactive: 0.049 |
| SRRM1 (UniProt Q8IYB3) | inactive: 0.097 | inactive: -0.015 | inactive: 0.006 | inactive: -0.042 | inactive: 0.047 | inactive: -0.039 | inactive: -0.077 | inactive: -0.18 | inactive: 0.108 | inactive: -0.024 |
| SRC isoform 2 (UniProt P12931) | inactive: -0.054 | inactive: -0.037 | inactive: -0.041 | inactive: -0.499 | – | inactive: -0.136 | inactive: 0.008 | inactive: -0.163 | inactive: 0.005 | inactive: 0.031 |
| SRSF6 (UniProt Q13247) | inactive: 0.578 | inactive: 0.192 | inactive: 0.155 | active: -0.813 | inactive: 0.079 | inactive: 0.095 | inactive: -0.251 | – | inactive: 0.212 | inactive: -0.014 |
| SRXN1 (UniProt Q9BYN0) | inactive: -0.011 | inactive: -0.157 | inactive: -0.017 | inactive: -0.088 | – | inactive: 0.093 | inactive: 0.134 | inactive: 0.056 | inactive: -0.149 | inactive: 0.127 |

— the supplement of paper PMC10849652
